Laboratory results from US20070167369A1, “Novel use of isolated polypeptide comprising four FAS-1 domains, EM1 domain and RGD motif” (KYUNGPOOK NATIONAL UNIVERSITY INDUSTRY-ACADEMIC COOPERATION …, priority 2004, published 2007).
No constants are given. Whether binding was seen depends on the method and setting. Some binding calls cover weakened binding; strength is not graded here.

Amino acid sequences for entries named in this document (tags omitted). A change or cut given only in a name is not applied to a line headed by its entry.
UniProt P06756: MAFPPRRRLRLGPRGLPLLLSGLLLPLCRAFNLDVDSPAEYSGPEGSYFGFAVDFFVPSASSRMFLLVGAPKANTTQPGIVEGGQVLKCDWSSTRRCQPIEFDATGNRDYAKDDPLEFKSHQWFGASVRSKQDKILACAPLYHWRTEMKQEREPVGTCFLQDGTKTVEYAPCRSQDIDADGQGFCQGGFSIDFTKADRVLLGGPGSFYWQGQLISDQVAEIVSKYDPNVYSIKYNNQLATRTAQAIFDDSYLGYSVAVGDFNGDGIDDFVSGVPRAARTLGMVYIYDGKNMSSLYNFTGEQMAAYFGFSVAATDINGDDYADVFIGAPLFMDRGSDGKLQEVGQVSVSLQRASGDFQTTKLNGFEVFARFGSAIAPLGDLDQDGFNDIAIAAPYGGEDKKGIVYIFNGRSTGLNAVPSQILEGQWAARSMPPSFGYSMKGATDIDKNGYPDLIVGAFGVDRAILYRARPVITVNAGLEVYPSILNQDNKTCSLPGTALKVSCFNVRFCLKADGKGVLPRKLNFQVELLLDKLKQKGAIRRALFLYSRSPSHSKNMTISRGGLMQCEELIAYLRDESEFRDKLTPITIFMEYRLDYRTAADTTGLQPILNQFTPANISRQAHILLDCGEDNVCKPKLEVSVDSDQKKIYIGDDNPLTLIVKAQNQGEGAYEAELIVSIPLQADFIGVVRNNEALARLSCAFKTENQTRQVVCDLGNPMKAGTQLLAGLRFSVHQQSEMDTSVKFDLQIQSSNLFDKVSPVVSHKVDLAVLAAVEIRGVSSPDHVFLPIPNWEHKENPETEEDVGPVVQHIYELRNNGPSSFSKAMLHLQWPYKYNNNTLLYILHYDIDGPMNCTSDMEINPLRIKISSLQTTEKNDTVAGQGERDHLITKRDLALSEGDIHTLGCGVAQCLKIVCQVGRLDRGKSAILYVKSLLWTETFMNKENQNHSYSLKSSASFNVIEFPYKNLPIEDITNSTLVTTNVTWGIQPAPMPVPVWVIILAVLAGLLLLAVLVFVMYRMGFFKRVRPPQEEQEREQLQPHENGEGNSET
UniProt P05106: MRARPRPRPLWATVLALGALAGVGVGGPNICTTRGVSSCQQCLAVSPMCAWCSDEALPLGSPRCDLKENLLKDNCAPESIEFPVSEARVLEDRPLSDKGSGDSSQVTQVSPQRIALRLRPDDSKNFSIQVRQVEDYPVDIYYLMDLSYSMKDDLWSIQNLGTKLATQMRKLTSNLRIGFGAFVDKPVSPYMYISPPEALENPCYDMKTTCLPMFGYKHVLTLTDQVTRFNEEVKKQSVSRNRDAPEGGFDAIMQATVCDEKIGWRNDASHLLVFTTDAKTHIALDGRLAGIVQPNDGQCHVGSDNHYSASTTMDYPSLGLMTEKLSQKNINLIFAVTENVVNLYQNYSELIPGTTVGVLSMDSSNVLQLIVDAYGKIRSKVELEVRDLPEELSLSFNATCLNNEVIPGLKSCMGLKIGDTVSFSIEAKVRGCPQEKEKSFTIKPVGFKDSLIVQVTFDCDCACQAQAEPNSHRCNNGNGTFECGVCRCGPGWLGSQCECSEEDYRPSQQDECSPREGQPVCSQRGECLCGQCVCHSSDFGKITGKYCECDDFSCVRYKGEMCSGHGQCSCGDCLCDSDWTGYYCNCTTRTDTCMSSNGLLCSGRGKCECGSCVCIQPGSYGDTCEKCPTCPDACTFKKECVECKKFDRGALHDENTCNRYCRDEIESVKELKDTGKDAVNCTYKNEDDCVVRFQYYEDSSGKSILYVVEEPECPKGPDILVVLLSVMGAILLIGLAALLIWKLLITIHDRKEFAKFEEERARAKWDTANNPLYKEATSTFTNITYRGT

Target: αvβ3 integrin (human) (UniProt P06756+P05106)
Experiment: biotin-βig-h3 incubated with HUVECs, cell lysate blotted with streptavidin-HRP

binding: binds
B1: biotinylated βig-h3 (ligand)
chain: WYQRKICGKSTVISYECCPGYEKVPGEKGCPAALPLSNLYETLGVVGSTTTQLYTDRTEKLRPEMEGPGSFTIFAPSNEAWASLPAEVLDSLVSNVNIELLNALRYHMVGRRVLTDELKHGMTLTSMYQNSNIQIHHYPNGIVTVNCARLLKADHHATNGVVHLIDKVISTITNNIQQIIEIEDTFETLRAAVAASGLNTMLEGNGQYTLLAPTNEAFEKIPSETLNRILGDPEALRDLLNNHILKSAMCAEAIVAGLSVETLEGTTLEVGCSGDMLTINGKAIISNKDILATNGVIHYIDELLIPDSAKTLFELAAESDVSTAIDLFRQAGLGNHLSGSERLTLLAPLNSVFKDGTPPIDAHTRNLLRNHIIKDQLASKYLYHGQTLETLGGKKLRVFVYRNSLCIENSCIAAHDKRGRYGTLFTMDRVLTPPMGTVMDVLKGDNRFSMLVAAIQSAGLTETLNREGVYTVFAPTNEAFRALPPRERSRLLGDAKELANILKYHIGDEILVSGGIGALVRLKSLQGDKLEVSLKNNVVSVNKEPVAEPDIMATNGVVHVITNVLQPPANRPQERGDELADSALEI
modifications: biotinylated (sites not given)
